The values that follow come from paper PMC8816931.

Amino acid sequences for entries named in this document (tags omitted). A change or cut given only in a name is not applied to a line headed by its entry.
UniProt A2AFI6: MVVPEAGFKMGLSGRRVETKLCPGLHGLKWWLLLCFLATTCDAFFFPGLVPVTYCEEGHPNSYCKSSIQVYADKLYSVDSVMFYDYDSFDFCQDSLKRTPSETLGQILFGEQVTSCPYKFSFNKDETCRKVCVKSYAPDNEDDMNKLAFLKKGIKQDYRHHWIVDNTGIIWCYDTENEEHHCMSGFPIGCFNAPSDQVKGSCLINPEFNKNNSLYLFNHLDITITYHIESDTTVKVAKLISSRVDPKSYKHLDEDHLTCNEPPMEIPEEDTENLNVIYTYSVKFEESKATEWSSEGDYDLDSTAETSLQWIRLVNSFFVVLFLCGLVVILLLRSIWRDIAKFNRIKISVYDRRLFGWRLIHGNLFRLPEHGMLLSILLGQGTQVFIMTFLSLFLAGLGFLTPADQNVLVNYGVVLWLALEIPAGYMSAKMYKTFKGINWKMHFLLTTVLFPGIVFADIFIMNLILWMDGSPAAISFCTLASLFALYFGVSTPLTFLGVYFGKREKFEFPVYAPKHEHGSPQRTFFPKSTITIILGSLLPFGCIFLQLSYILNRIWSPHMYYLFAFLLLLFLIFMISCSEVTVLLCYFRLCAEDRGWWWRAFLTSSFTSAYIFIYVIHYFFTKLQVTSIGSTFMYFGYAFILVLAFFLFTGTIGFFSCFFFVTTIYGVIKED

The experiment concerns the target Gm364 (mouse) (UniProt A2AFI6). Put plainly: co-IP; 2.5 ug rabbit antibody coupled to protein A/G beads, lysate of 400 mouse oocytes, IP buffer (20 mM Tris-HCl pH 8.0, 10 mM EDTA, 1 mM EGTA, 150 mM NaCl, 0.05% Triton X-100, 0.05% Nonidet P-40), overnight at 4 °C, three washes, SDS-PAGE and western blot; rabbit IgG as control.

No constants are given. Whether binding was seen depends on the method and setting. In cells and extracts the contact can be indirect. Binding can be weak; no strength is given.

B1: MIB2 (enzyme, UniProt Q8R516 1-973)
chain: MDLDPHAGVQVGMRVVRGMDWKWGQQDGGEGGVGTVVELGRHGSPSTPDRTVVVQWDQGTRTNYRAGYQGAHDLLLYDNAQIGIRHPNIICDCCKKHGLRGMRWKCRVCFDYDLCTQCYMHNKHDLTHAFERYETSHSRPVTLSPRQGLPRIPLRGIFQGAKVVRGPDWEWGSQDGGEGKTGRVVDIRGWDVETGRSVASVTWADGTTNVYRVGHKGKVDLRCVGEAAGGFYYKEHLPKLGKPAELQRRVSADGQPFQRGDKVKCLLDTDVLRDMQEGHGGWNPRMAEFIGQMGTVHRITDRGDVRVQFNHETRWTFHPGALTKHNSFWVGDVVRVIGDLDTVKRLQAGHGEWTDDMAPALGRVGKVVKVFGDGNLRVAVGGQRWTFSPSCLVAYRPEEDANLDVAERARENKSAASVSVAGSLSVALDKLRTQKSDPEHPGRLVVEAALGNVARALDLLRRHPEQASYHPALVVDTKNQGRTALQVAAYLGQVELVRLLLQARASMDLPDDEGNTVLHYTAMGNQPEATRVLLSAGCAVDARNGTRSTALHVAVQRGFLEVVKILCERGCDVNLPDAHADTPLHSAISAGAGASSIVEVLTEVPGIDVTATNSQGFTLLHHASLKGHVLAVRKILARARQLVDAKKEDGFTALHLAALNNHREVAQVLIREGRCDVNVRNRKLQSPLHLAVQQAHLGLVPLLVDAGCSVNTEDEEGDTALHVALQRHQLLPLVADRAGGDPGPLQLLSRLQASGLPGCTELTVGAAVACFLALEGADVSYANHRGRSPLDLATEGRVLKALQGCAQRFRERQAGGGGGVPPGPRHVLSTPNTVTNLHVSGTAGPEAAECLVCSELALLILFSPCQHRTVCEECARRMKKCIRCQVVISKKLRPDGSEVVNAIQVPGPPRQLVEELQSRYRQMEERITCPICIDSHIRLVFQCGHGACAPCGAALNACPICRQPIRDRIQIFV
For the molecule B1, the binding result was “binds”.

B2: GRAMD1A (protein, UniProt Q8VEF1 1-722)
chain: MFDTTPHSGRSSPSSSPSLRKRLQLLPPIRPPPASEPEPGTMVEKGSDSSSEKSGVSGTLSTQSLGSRNFIRNSKKMQSWYSMLCPTYKQRNEDFRKLFSKLPEAERLIVDYSCALQREILLQGRLYLSENWICFYSNIFRWETTISIQLKEVTCLKKEKTAKLIPNAIQICTESEKHFFTSFGARDRCFLLIFRLWQNALLEKTLSPRELWHLVHQCYGSELGLTSEDEDYVCPLQLNGLGSPKEVGDVIALSDISPSGAADHSQEPSPVGSRRGRVTPNLSRASSDADHGAEEDKEEQTDGLDASSSQTVTPVAEPLSSEPTPPDGPTSSLGPLDLLSREELLTDTSNSSSSTGEEGDLAALLPDLSGRLLINSVFHMGAERLQQMLFSDSPFLQGFLQQRKFTDVTLSPWSSDSKCHQRRVLTYTIPISNQLGPKSASVVETQTLFRRGPQAGGCVVDSEVLTQGIPYQDYFYTAHRYCILGLARNKARLRVSSEIRYRKQPWSLVKSLIEKNSWSGIEDYFHHLDRELAKAEKLSLEEGGKDTRGLLSGLRRRKRPLSWRGHRDGPQHPDPDPCTQTSMHTSGSLSSRFSEPSVDQGPGAGIPSALVLISIVLIVLIALNALLFYRLWSLERTAHTFESWHSLALAKGKFPQTATEWAEILALQKHFHSVEVHKWRQILRASVELLDEMKFSLEKLHQGITVPDPPLDTQPQPDDSFP
Consider B2, for which the binding entry is given as “binds”.
